From paper PMC7665892 come the findings set out here.

Sequences of proteins named here, by UniProt entry; tags and fusion partners are left off. A change or cut given only in a name is not applied to a line headed by its entry. A line that says so, or that is headed by a name, gives the form on record, which may keep a tag or linker.
UniProt Q01628: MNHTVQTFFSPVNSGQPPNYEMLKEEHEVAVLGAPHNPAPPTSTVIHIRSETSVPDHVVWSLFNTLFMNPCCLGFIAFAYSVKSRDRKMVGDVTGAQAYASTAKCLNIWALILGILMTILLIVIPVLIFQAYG
IFITM3 G95L tagged with YFP or mCherry internally after residue 40 (Q01628, form named): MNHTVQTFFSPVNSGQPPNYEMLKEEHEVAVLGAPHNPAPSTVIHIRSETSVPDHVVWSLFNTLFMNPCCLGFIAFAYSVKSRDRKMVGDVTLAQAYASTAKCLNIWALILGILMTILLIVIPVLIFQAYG
IFITM3 WT tagged with YFP or mCherry internally after residue 40 (Q01628, form named): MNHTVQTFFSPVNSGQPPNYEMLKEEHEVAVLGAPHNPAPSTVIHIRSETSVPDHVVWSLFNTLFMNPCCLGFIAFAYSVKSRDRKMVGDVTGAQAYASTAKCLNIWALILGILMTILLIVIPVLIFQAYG

These are yes or no findings as the source states them, for the method shown. For part of these data: In cells and extracts the contact can be indirect. Some binding calls cover weakened binding; strength is not graded here. For part of these data: Where a sequence is shown, tags or fusion partners need not be part of it.

Assay [1] addresses IFITM3 F75A/F78A fused with YFP or mCherry at the amino terminus (human) (UniProt Q01628). In words: FRET or BRET; FRET index and FLIM of the donor YFP in living HEK293T cells transiently co-transfected with a YFP-tagged and an mCherry-tagged copy; free mCherry with the YFP copy as background; Fluorobrite DMEM. For orientation: BRET reads energy transfer from a luciferase to a nearby fluorophore.

Assay [2] has as its target IFITM3 WT fused with YFP or mCherry at the amino terminus (human) (UniProt Q01628). The assay is described as above.
The target in assay [3] is IFITM3 WT fused with amino-terminal FLAG or myc (human) (UniProt Q01628). In words: co-IP; HEK293T co-transfected with FLAG- and myc-tagged copies; lysis in 0.5% IPEGAL, 50 mM Tris pH 7.4, 150 mM NaCl, 1 mM EDTA; anti-FLAG M2 magnetic beads, 3 hr, 4°C; quantitative immunoblot with anti-myc. (In general: Immunoblotting shows a protein as a band on a membrane.)
In assay [4] the target is IFITM3 G95L tagged with YFP or mCherry internally after residue 40 (human) (UniProt Q01628). In words: FRET or BRET; FRET index and FLIM of the donor YFP in living HEK293T cells transiently co-transfected with a YFP-tagged and an mCherry-tagged copy; free mCherry with the YFP copy as background; Fluorobrite DMEM.
For assay [5], the target named is IFITM3 S61A/N64A/T65A fused with YFP or mCherry at the amino terminus (human) (UniProt Q01628). The assay is described as above.
In assay [6] the target is IFITM3 WT fused with amino-terminal FLAG or myc (human) (UniProt Q01628). Description: native gel or EMSA; blue native PAGE (4-16% Bis-Tris) of lysates of transfected HEK293T made with 1% digitonin; immunoblot with anti-FLAG. (Mobility shift assays separate free from complexed probe on a gel.)
Assay [7] has as its target IFITM3 WT tagged with YFP or mCherry internally after residue 40 (human) (UniProt Q01628). In words: FRET or BRET; FRET index and FLIM of the donor YFP in living HEK293T cells transiently co-transfected with a YFP-tagged and an mCherry-tagged copy; free mCherry with the YFP copy as background; Fluorobrite DMEM.
The target in assay [8] is T1, PRRT2 WT tagged with carboxy-terminal YFP or mCherry (human), Q7Z6L0.
T1 chain: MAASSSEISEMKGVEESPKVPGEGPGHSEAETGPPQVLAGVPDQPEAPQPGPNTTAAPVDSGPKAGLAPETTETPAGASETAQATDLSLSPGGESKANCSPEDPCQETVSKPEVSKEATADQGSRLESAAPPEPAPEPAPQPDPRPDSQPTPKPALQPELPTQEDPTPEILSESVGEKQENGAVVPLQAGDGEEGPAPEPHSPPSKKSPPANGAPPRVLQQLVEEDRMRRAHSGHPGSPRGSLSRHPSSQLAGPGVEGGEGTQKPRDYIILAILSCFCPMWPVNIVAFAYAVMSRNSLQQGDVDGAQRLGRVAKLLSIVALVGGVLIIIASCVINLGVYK
The assay is described as above. The following applies: remark: other sources report otherwise.

In the case of “IFITM3 F75A/F78A fused with YFP or mCherry at the amino terminus (from UniProt Q01628 1-133)”, the binding entry in assay [1] was “binds”.

For “IFITM3 G95L fused with YFP or mCherry at the amino terminus (from UniProt Q01628 1-133)”, the binding result in assay [2] is “binds”.

As to “IFITM3 G95L fused with amino-terminal FLAG or myc (from UniProt Q01628 1-133)”, in assay [3], the binding entry is recorded as “binds”.

In the case of “IFITM3 G95L tagged with YFP or mCherry internally after residue 40 (from UniProt Q01628 1-133)”, in assay [4], the binding entry is given as “binds”.

Take “IFITM3 S61A/N64A/T65A fused with YFP or mCherry at the amino terminus (from UniProt Q01628 1-133)”: the binding result in assay [5] was “binds”.

With “IFITM3 WT fused with amino-terminal FLAG or myc (from UniProt Q01628 1-133)”, the binding result in assay [6] and in assay [3] was “binds” throughout.

As to “IFITM3 WT tagged with YFP or mCherry internally after residue 40 (from UniProt Q01628 1-133)”, the binding entry in assay [7] is listed as “binds”.

B1: PRRT2 WT tagged with carboxy-terminal YFP or mCherry, Q7Z6L0 1-340 (protein)
chain: MAASSSEISEMKGVEESPKVPGEGPGHSEAETGPPQVLAGVPDQPEAPQPGPNTTAAPVDSGPKAGLAPETTETPAGASETAQATDLSLSPGGESKANCSPEDPCQETVSKPEVSKEATADQGSRLESAAPPEPAPEPAPQPDPRPDSQPTPKPALQPELPTQEDPTPEILSESVGEKQENGAVVPLQAGDGEEGPAPEPHSPPSKKSPPANGAPPRVLQQLVEEDRMRRAHSGHPGSPRGSLSRHPSSQLAGPGVEGGEGTQKPRDYIILAILSCFCPMWPVNIVAFAYAVMSRNSLQQGDVDGAQRLGRVAKLLSIVALVGGVLIIIASCVINLGVYK
Consider B1, for which, in assay [8], the binding entry is recorded as “binds”.
